# The list is a part of this screen's results and no random one: it gathers tests that were run many times, whatever their T/C, doses with no T/C, and many T/C values between a quarter and a half above the control. Further doses and runs are listed elsewhere. T/C gives the treated animals as a percentage of the vehicle group. Some doses have a count of surviving animals in place of a T/C: the source files T/C as zero there, which appears to mark a toxic dose or a test without result, not a measured value. Some survivor counts are full or nearly so, which does not show that the dose was tolerated: survival well below the control is almost never listed, so the zero probably covers shortened survival too. Counts of survivors are from the toxicity check (mostly the fifth day) where no day follows; animals may have died later. Schedule codes are those of the source, taken here to give the interval after Q, in days (D) or hours (H), and the number of doses after X. Some entries hold several experiments; the values are given in rising order. Where survival is the endpoint, this PubChem deposit counts one and a half times the control or more as active, and values a quarter to a half above the control carry no call in these data; other NCI protocols may use other cut-offs.
# System: BDF1 mice, B16 melanoma ip, median survival T/C
# Assay: NCI In Vivo Anticancer Drug Screen. Data for tumor model B16 Melanoma (intraperitoneal) in B6D2F1 (BDF1) mice
# Details: T/C endpoint: median survival time, higher T/C = longer survival
# Summary of the method: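 Tumor-bearing mice received test compound or vehicle. Survival or tumor size was then measured in both groups. The treated-group figure was divided by the control-group figure.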
# [1] = dose: 400.0 mg/kg/injection, schedule: Q01DX009 (ip), vehicle: Klucel (hydroxypropylcellulose) (HPC)
# [2] = dose: 8.0 mg/kg/injection, schedule: Q01DX009 (ip), vehicle: saline
# [3] = dose: 25.0 mg/kg/injection, schedule: Q01DX009 (ip), vehicle: Klucel (hydroxypropylcellulose) (HPC)
# [4] = dose: 50.0 mg/kg/injection, schedule: Q01DX009 (ip), vehicle: Klucel (hydroxypropylcellulose) (HPC)
# [5] = dose: 100.0 mg/kg/injection, schedule: Q01DX009 (ip), vehicle: Klucel (hydroxypropylcellulose) (HPC)
# [6] = dose: 50.0 mg/kg/injection, schedule: Q01DX009 (ip), vehicle: saline with Tween-80
# [7] = dose: 100.0 mg/kg/injection, schedule: Q01DX009 (ip), vehicle: saline with Tween-80
# [8] = dose: 200.0 mg/kg/injection, schedule: Q01DX009 (ip), vehicle: saline with Tween-80
# [9] = dose: 400.0 mg/kg/injection, schedule: Q01DX009 (ip), vehicle: saline with Tween-80
# [10] = dose: 25.0 mg/kg/injection, schedule: Q01DX009 (ip), vehicle: saline
# [11] = dose: 200.0 mg/kg/injection, schedule: Q01DX009 (ip), vehicle: saline
smiles,measurement,setting,value
CC1=C(/C=C/C(C)=C/C=C/C(C)=C/C(=O)O)C(C)(C)CCC1,survivor count,"dose: 2.0 mg/kg/injection, schedule: Q01DX009 (ip), vehicle: saline with Tween-80",10 of 10
same,T/C,"dose: 4.0 mg/kg/injection, schedule: Q01DX009 (ip), vehicle: saline with Tween-80","90, 91, 94, 110 % of control"
same,survivor count,"dose: 8.0 mg/kg/injection, schedule: Q01DX009 (ip), vehicle: saline with Tween-80",10 of 10
same,survivor count,"dose: 16.0 mg/kg/injection, schedule: Q01DX005 (ip), vehicle: saline with Tween-80",10 of 10
same,survivor count,"dose: 32.0 mg/kg/injection, schedule: Q01DX005 (ip), vehicle: saline with Tween-80",10 of 10
same,survivor count,"dose: 32.0 mg/kg/injection, schedule: Q01DX009 (ip), vehicle: saline with Tween-80",10 of 10
same,survivor count,"dose: 64.0 mg/kg/injection, schedule: Q01DX005 (ip), vehicle: saline with Tween-80",10 of 10
same,survivor count,"dose: 64.0 mg/kg/injection, schedule: Q01DX009 (ip), vehicle: saline with Tween-80",10 of 10
same,survivor count,"dose: 128.0 mg/kg/injection, schedule: Q01DX005 (ip), vehicle: saline with Tween-80",10 of 10
same,survivor count,"dose: 128.0 mg/kg/injection, schedule: Q01DX009 (ip), vehicle: saline with Tween-80",10 of 10
CNC(=O)Nc1ccc(C)c(Cl)c1,survivor count,[1],10 of 10
CCO/C=C1\SC(=S)N(c2ccc(OCC)cc2)C1=O,survivor count,[1],10 of 10
NC(=O)CNC1=C(N2CC2)C(=O)C(NCC(N)=O)=C(N2CC2)C1=O,T/C,"dose: 2.0 mg/kg/injection, schedule: Q01DX009 (ip), vehicle: saline",134 % of control
same,T/C,[2],137 % of control
[CH3][Hg][O]C(C)=O,survivor count,"dose: 12.5 mg/kg/injection, schedule: Q01DX009 (ip), vehicle: Klucel (hydroxypropylcellulose) (HPC)",7 of 10
same,survivor count,[3],0 of 10
CN(C)N=Nc1ccccc1,T/C,"dose: 6.25 mg/kg/injection, schedule: Q01DX009 (ip), vehicle: Klucel (hydroxypropylcellulose) (HPC)",131 % of control
same,T/C,[3],130 % of control
same,T/C,[4],136 % of control
same,survivor count,[4],10 of 10
same,survivor count,[5],0 of 10 and 9 of 10
same,survivor count,"dose: 200.0 mg/kg/injection, schedule: Q01DX009 (ip), vehicle: Klucel (hydroxypropylcellulose) (HPC)",0 of 10
O=C(Nc1ccc([N+](=O)[O-])cc1)Nc1ccc([N+](=O)[O-])c(C(F)(F)F)c1,survivor count,[6],6 of 6
same,survivor count,[7],6 of 6
same,survivor count,[8],6 of 6
same,survivor count,[9],3 of 6
CC(C)CC(NC(=O)C(CC(C)C)NC(=O)OCc1ccccc1)C(=O)O (centres undefined),survivor count,[9],10 of 10
CS(=O)(=O)OCC(O)C(O)COS(C)(=O)=O (centres undefined),T/C,"dose: 400.0 mg/kg/injection, schedule: Q01DX009 (ip), vehicle: saline with Tween-80, evaluated on day 45",137 % of control
same,T/C,"dose: 400.0 mg/kg/injection, schedule: Q01DX009 (ip), vehicle: saline with Tween-80, evaluated on day 60",130 % of control
CCCCCCCCCCCCCCCCCC(=O)Nc1ccn(C2OC(CO)C(O)C2O)c(=O)n1 (centres undefined),T/C,"dose: 6.25 mg/kg/injection, schedule: Q01DX009 (ip), vehicle: saline with Tween-80",125 and 133 % of control
same,T/C,"dose: 12.5 mg/kg/injection, schedule: Q01DX009 (ip), vehicle: saline with Tween-80",138 % of control
same,survivor count,[6],10 of 10
same,survivor count,[7],10 of 10
same,survivor count,[8],10 of 10
CC1(C)N=C(N)N=C(N)N1c1cccc(CCCCc2cccc(S(=O)(=O)F)c2)c1,survivor count,[6],4 of 10
CCCCCCCCCCCC[N+]1(CCCCCCCCCCCC)CCCC(C)C1 (centres undefined),survivor count,"dose: 0.75 mg/kg/injection, schedule: Q01DX009 (ip), vehicle: Klucel (hydroxypropylcellulose) (HPC)",10 of 10
same,survivor count,"dose: 1.5 mg/kg/injection, schedule: Q01DX009 (ip), vehicle: Klucel (hydroxypropylcellulose) (HPC)",5 of 10
same,survivor count,"dose: 3.0 mg/kg/injection, schedule: Q01DX009 (ip), vehicle: Klucel (hydroxypropylcellulose) (HPC)",0 of 10
same,survivor count,"dose: 6.0 mg/kg/injection, schedule: Q01DX009 (ip), vehicle: Klucel (hydroxypropylcellulose) (HPC)",2 of 10
CCCc1c(Cl)nc(Cl)nc1Cl,survivor count,[4],8 of 10
same,survivor count,[5],1 of 10
O=C1C=CC(=O)N1c1ccc(Cl)cc1,survivor count,"dose: 2.5 mg/kg/injection, schedule: Q01DX009 (ip), vehicle: Klucel (hydroxypropylcellulose) (HPC)",10 of 10
same,survivor count,"dose: 5.0 mg/kg/injection, schedule: Q01DX009 (ip), vehicle: Klucel (hydroxypropylcellulose) (HPC)",10 of 10
same,survivor count,"dose: 10.0 mg/kg/injection, schedule: Q01DX009 (ip), vehicle: Klucel (hydroxypropylcellulose) (HPC)",10 of 10
same,survivor count,"dose: 20.0 mg/kg/injection, schedule: Q01DX009 (ip), vehicle: Klucel (hydroxypropylcellulose) (HPC)",3 of 10
same,survivor count,"dose: 40.0 mg/kg/injection, schedule: Q01DX009 (ip), vehicle: Klucel (hydroxypropylcellulose) (HPC)",0 of 10
COc1cc(OC)cc(C(O)C(C)NC(C)C)c1 (centres undefined),T/C,"dose: 12.5 mg/kg/injection, schedule: Q01DX009 (ip), vehicle: saline",127 % of control
same,T/C,[10],127 % of control
CC(=O)Oc1c(C)c2c(O)c3c1C1=C(OCOC1=C(C)C3=O)C(C)=CC(C)(O)C(O)C(C)C(O)C1C(=O)OC(C(C)/C=C\C=C(C)C(=O)N2)C(C)C1O (centres undefined),survivor count,[10],10 of 10
same,survivor count,"dose: 100.0 mg/kg/injection, schedule: Q01DX009 (ip), vehicle: saline",10 of 10
same,survivor count,[11],10 of 10
CCCCCCCCCCCCCCCCCC(=O)NN,survivor count,"dose: 200.0 mg/kg/injection, schedule: Q01DX009 (ip), vehicle: carboxymethylcellulose (CMC)",10 of 10
same,survivor count,"dose: 400.0 mg/kg/injection, schedule: Q01DX009 (ip), vehicle: carboxymethylcellulose (CMC)",9 of 10
C1CCC2[N-]CC3CCCCC3[N-]CC3CCCCC3[N-]CC3CCCCC3[N-]CC2C1.[Cu+2].[O-][Cl+3]([O-])([O-])O (centres undefined),survivor count,[3],10 of 10
same,survivor count,[4],3 of 10
Cc1ccn2ncnc2c1,survivor count,[11],8 of 10
same,survivor count,"dose: 400.0 mg/kg/injection, schedule: Q01DX009 (ip), vehicle: saline",5 of 10
O=C(O)c1[nH]c(=O)[nH]c(=O)c1F,survivor count,[2],10 of 10
same,survivor count,"dose: 16.0 mg/kg/injection, schedule: Q01DX009 (ip), vehicle: saline",10 of 10
CCCCCCCCCCC(O)CN1CCN(c2ccc(C)cc2)CC1 (centres undefined),survivor count,[4],10 of 10
same,survivor count,[5],10 of 10
C=C1C(=O)OCC2C(C(=O)O)=CC3C(C)C(C)=CC123 (centres undefined),survivor count,"dose: 80.0 mg/kg/injection, schedule: Q01DX009 (ip), vehicle: Klucel (hydroxypropylcellulose) (HPC)",10 of 10
CC(=O)Oc1ccccc1C(=O)O,survivor count,"dose: 125.0 mg/kg/injection, schedule: Q01DX009 (ip), vehicle: saline with Tween-80",6 of 6
Nc1nc(=S)c2ncn(C3CC(O)C(CO)O3)c2[nH]1 (centres undefined),survivor count,"dose: 10.0 mg/kg/injection, schedule: Q01DX009 (ip), vehicle: saline with Tween-80",6 of 6
same,survivor count,"dose: 20.0 mg/kg/injection, schedule: Q01DX009 (ip), vehicle: saline with Tween-80",6 of 6
same,survivor count,"dose: 100.0 mg/kg/injection, schedule: Q01DX009 (ip), vehicle: saline sonified",6 of 6
same,survivor count,"dose: 200.0 mg/kg/injection, schedule: Q01DX009 (ip), vehicle: saline sonified",6 of 6
Cc1cccc2c(Nc3ccc(NS(C)(=O)=O)cc3)c3ccc([N+](=O)[O-])cc3nc12,T/C,"dose: 5.3 mg/kg/injection, schedule: Q01DX009 (ip), vehicle: saline with Tween-80",130 % of control
O=[N+]([O-])c1ccc2scc3c4ccccc4nc-3c2c1,survivor count,[10],5 of 10
